Results published in the supplement of paper PMC10849652.
This is one part of the list.

Chains of the proteins cited; added tags and fusions are not shown. Lines headed by an entry give the natural chain unless they say otherwise; changes in a name come on top.
UniProt P02647, whole entry, looked up: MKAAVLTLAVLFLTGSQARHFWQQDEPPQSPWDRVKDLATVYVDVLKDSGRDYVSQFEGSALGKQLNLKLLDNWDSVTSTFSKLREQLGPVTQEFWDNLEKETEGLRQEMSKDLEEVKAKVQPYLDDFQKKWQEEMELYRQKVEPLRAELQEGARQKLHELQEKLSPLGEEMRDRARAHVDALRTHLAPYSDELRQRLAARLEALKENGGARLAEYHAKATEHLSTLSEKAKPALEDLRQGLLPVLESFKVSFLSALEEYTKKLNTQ
UniProt Q0VD83: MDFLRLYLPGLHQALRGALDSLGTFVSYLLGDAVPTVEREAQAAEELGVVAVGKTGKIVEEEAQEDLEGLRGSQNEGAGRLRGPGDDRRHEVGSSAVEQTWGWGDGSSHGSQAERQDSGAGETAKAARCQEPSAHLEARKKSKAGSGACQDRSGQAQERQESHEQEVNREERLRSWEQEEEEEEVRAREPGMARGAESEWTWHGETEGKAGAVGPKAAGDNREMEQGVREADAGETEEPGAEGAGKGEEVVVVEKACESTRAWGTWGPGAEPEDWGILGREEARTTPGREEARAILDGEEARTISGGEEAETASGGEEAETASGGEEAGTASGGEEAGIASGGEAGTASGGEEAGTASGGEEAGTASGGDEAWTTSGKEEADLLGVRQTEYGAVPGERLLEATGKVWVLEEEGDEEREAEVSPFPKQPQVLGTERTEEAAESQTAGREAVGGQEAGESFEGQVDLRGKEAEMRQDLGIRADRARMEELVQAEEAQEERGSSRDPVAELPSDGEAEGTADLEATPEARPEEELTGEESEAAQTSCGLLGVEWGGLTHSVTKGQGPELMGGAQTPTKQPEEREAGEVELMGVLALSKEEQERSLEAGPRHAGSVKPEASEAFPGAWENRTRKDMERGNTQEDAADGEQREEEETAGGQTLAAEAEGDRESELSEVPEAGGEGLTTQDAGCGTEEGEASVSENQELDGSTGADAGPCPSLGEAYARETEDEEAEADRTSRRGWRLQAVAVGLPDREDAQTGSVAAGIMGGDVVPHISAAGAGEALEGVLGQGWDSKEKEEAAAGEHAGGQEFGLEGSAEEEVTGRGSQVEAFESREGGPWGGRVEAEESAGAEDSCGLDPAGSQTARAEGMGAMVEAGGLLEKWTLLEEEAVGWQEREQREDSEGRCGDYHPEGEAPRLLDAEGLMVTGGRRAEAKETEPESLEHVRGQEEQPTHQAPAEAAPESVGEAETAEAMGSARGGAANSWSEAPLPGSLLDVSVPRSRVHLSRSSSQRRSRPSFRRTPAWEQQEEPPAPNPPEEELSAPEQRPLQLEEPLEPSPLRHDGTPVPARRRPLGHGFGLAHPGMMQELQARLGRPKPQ
UniProt Q68EM7: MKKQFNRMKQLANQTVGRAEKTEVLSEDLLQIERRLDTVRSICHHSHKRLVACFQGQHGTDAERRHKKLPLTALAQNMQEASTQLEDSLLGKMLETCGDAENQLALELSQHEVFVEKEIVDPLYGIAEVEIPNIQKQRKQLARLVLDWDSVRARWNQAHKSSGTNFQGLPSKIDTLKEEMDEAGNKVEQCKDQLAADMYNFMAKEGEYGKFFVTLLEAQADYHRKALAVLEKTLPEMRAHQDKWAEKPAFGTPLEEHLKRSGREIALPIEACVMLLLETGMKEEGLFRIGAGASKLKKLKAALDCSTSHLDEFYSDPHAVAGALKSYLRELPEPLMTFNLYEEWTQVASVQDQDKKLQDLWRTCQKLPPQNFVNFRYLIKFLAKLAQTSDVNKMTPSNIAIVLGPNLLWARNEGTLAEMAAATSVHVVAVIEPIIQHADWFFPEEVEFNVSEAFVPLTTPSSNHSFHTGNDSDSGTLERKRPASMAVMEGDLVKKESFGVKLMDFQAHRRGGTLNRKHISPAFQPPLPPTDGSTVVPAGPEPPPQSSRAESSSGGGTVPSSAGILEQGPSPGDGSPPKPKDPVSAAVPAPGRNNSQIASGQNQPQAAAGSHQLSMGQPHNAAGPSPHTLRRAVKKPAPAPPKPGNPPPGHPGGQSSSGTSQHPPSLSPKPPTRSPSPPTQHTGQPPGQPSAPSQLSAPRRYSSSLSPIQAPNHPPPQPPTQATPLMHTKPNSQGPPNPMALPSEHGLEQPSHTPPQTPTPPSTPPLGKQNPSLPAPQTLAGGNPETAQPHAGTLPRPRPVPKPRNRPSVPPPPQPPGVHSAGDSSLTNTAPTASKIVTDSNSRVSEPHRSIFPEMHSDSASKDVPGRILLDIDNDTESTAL
UniProt Q9Y2T2: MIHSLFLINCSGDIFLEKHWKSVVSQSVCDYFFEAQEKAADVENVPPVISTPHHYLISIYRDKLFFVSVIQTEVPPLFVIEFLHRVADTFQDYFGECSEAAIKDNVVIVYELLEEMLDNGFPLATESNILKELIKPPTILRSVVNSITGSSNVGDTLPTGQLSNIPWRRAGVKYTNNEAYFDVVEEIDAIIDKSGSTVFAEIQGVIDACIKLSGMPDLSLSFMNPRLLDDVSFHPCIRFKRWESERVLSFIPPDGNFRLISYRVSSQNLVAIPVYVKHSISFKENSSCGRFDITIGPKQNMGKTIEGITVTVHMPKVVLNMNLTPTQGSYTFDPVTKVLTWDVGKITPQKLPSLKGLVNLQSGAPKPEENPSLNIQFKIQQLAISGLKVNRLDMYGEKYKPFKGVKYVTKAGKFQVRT
UniProt P84085: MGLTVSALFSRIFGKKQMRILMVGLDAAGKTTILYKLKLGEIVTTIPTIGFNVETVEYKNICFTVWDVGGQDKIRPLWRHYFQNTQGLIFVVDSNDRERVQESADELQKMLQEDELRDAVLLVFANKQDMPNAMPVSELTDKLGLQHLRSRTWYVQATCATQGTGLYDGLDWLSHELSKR
UniProt P07741: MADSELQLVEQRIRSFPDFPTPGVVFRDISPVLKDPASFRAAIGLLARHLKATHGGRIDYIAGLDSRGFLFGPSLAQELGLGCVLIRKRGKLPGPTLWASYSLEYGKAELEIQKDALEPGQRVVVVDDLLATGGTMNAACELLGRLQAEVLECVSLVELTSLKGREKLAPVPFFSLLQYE
UniProt O00203: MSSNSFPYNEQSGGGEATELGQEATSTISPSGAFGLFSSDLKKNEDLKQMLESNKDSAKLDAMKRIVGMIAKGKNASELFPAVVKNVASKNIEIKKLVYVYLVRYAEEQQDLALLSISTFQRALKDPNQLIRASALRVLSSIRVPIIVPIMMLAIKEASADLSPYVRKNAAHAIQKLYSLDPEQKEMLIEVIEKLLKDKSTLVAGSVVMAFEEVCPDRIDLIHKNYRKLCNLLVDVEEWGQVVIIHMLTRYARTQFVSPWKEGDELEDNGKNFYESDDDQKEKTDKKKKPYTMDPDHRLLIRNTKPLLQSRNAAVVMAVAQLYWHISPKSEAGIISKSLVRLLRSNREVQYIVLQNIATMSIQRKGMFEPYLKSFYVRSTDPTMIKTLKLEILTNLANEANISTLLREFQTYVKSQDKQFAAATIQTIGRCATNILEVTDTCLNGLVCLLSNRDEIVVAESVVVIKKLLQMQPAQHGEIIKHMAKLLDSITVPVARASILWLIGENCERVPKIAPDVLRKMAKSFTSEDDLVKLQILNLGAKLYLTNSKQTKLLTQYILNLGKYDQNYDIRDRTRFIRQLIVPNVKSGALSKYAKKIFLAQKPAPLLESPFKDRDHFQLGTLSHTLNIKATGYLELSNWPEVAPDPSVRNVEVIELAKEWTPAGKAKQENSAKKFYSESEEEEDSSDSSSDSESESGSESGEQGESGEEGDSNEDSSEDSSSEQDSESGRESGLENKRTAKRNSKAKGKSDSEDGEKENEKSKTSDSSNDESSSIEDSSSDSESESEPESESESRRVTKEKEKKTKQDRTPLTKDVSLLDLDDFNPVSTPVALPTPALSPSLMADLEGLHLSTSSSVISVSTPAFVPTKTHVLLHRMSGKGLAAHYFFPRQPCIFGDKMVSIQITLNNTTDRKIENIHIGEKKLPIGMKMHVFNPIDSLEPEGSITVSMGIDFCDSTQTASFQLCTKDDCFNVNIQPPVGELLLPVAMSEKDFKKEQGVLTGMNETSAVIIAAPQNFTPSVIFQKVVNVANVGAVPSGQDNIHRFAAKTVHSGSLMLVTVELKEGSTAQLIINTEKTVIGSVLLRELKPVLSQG
UniProt Q4KMQ2: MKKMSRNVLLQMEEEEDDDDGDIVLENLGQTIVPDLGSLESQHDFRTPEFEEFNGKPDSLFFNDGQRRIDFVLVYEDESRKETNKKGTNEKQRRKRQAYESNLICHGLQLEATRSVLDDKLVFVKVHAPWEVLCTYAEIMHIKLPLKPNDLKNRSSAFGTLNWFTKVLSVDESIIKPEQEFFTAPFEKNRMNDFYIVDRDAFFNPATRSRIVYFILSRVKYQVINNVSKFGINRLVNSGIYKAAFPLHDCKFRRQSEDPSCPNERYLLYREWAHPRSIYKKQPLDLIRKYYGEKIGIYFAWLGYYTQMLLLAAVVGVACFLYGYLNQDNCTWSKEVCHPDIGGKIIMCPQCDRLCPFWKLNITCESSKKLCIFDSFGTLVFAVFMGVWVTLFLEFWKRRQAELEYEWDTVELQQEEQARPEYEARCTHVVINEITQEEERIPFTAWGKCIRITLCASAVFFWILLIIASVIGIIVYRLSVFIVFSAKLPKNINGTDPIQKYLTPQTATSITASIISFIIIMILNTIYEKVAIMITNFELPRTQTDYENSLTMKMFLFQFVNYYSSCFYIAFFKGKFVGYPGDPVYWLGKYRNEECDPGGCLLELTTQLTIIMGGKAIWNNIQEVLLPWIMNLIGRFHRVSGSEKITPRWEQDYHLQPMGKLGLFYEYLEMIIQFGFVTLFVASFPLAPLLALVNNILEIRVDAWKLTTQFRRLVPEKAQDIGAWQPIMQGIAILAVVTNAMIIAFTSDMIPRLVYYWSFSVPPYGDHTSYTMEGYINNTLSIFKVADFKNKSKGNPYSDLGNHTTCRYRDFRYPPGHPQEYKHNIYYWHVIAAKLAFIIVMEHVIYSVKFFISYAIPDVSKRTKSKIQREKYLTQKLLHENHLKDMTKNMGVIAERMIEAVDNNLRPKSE
UniProt P02654: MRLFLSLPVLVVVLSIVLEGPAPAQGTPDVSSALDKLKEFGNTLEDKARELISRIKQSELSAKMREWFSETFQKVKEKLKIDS
UniProt Q8IV38: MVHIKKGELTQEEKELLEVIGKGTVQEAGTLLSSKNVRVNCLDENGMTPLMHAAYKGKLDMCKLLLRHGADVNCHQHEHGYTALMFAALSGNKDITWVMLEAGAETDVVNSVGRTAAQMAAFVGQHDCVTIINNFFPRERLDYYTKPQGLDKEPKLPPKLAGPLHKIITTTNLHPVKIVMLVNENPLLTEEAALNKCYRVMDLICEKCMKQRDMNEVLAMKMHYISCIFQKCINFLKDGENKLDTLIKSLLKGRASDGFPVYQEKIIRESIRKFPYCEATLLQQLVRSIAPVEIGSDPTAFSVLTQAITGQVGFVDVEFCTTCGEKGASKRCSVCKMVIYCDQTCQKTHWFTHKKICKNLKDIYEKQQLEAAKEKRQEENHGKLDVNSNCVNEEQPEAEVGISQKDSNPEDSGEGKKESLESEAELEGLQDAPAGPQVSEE
UniProt Q92974: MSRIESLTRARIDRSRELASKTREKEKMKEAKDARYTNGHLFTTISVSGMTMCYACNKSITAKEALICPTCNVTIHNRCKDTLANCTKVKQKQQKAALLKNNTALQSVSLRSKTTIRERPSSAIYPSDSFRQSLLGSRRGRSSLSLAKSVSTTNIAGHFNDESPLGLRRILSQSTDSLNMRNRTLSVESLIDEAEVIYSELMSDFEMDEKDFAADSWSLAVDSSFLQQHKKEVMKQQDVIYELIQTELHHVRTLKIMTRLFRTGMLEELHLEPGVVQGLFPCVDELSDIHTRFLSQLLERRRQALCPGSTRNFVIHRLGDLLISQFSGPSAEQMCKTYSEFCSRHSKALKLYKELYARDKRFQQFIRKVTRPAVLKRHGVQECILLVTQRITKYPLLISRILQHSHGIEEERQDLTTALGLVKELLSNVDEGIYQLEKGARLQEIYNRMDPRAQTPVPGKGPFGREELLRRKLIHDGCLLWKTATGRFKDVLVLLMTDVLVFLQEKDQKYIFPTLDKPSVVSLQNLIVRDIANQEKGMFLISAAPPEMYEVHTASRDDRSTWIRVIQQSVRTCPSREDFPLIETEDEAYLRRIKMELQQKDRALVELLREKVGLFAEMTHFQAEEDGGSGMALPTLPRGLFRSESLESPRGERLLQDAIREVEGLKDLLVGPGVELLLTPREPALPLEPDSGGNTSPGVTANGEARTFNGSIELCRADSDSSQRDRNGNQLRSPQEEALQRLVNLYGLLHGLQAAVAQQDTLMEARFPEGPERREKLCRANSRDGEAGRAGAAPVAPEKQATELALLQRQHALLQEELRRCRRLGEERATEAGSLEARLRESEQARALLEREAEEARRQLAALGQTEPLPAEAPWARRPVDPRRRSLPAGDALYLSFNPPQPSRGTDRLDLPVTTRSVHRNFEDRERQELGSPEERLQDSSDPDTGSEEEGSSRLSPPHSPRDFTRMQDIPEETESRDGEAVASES

Experiments:
Assay in all cases: log2 fold change, soluble protein after heating vs DMSO (PISA); higher = thermal stabilisation; K562 cells, 10 uM, 30 min; active = over 0.2 and 3.5 SD of the protein, either way, in both replicates (recomputed)
saracatinib = compound: CN1CCN(CCOc2cc(OC3CCOCC3)c3c(Nc4c(Cl)ccc5c4OCO5)ncnc3c2)CC1 [saracatinib]
In short: (§1)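 Aliquots of K562 cells (2×10^6 cells/mL) treated with 10 μM compound for 30 min were heated for 3 min over 48°C-58°C. After pooling and extraction in PBS with 0.5% NP-40 at 4°C, soluble protein from a 21,000xg, 90 min spin was quantified by TMTpro 16plex LC-MS/MS with channel sums equalised. Thermal stability is expressed against control samples, from duplicates, as a log2 fold change.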

sotrastaurin = compound: CN1CCN(c2nc(C3=C(c4c[nH]c5ccccc45)C(=O)NC3=O)c3ccccc3n2)CC1 [sotrastaurin]
In short: as §1

alvocidib = compound: CN1CC[C@H](c2c(O)cc(O)c3c(=O)cc(-c4ccccc4Cl)oc23)[C@H](O)C1 [alvocidib]
In short: as §1

Tubastatin A = compound: CN1CCc2c(c3ccccc3n2Cc2ccc(C(=O)NO)cc2)C1 [Tubastatin A]
In short: as §1

[1] = compound: CNC(=O)C1=CC=CC=C1NC2=NC(=NC=C2Cl)NC3=C(C=C(C=C3)N4CCOCC4)OC
In short: as §1

defactinib = compound: CNC(=O)c1ccc(Nc2ncc(C(F)(F)F)c(NCc3nccnc3N(C)S(C)(=O)=O)n2)cc1 [defactinib]
In short: as §1

rucaparib = compound: CNCc1ccc(-c2[nH]c3cc(F)cc4c3c2CCNC4=O)cc1 [rucaparib]
In short: as §1

[2] = compound: CNc1nc(-c2ccc3c(N)n[nH]c3c2)cc(N2C[C@@H](C(=O)NC3CCCCC3)CC[C@H]2C)n1
In short: as §1

encorafenib = compound: COC(=O)N[C@@H](C)CNc1nccc(-c2cn(C(C)C)nc2-c2cc(Cl)cc(NS(C)(=O)=O)c2F)n1 [encorafenib]
In short: as §1

[3] = compound: COC(=O)[C@H](CCSC)NC(=O)C1=C(C=C(C=C1)NC[C@H](CS)N)C2=CC=CC=C2
In short: as §1

[4] = compound: COC1=CC=C(C=C1)CN2C=CC3=C2C=C(C=C3)C(=O)NO
In short: as §1

filanesib = compound: CON(C)C(=O)N1N=C(c2cc(F)ccc2F)S[C@@]1(CCCN)c1ccccc1 [filanesib]
In short: as §1

zotarolimus = compound: CO[C@H]1C[C@@H]2CC[C@@H](C)[C@@](O)(O2)C(=O)C(=O)N2CCCC[C@H]2C(=O)O[C@H]([C@H](C)C[C@@H]2CC[C@H](n3cnnn3)[C@H](OC)C2)CC(=O)[C@H](C)/C=C(\C)[C@@H](O)[C@@H](OC)C(=O)[C@H](C)C[C@H](C)/C=C/C=C/C=C/1C [zotarolimus]
In short: as §1

idasanutlin = compound: COc1cc(C(=O)O)ccc1NC(=O)[C@@H]1N[C@@H](CC(C)(C)C)[C@](C#N)(c2ccc(Cl)cc2F)[C@H]1c1cccc(Cl)c1F [idasanutlin]
In short: as §1

alisertib = compound: COc1cc(Nc2ncc3c(n2)-c2ccc(Cl)cc2C(c2c(F)cccc2OC)=NC3)ccc1C(=O)O [alisertib]
In short: as §1

[5] = compound: COc1cc2nc(-c3cc(F)ccc3O)nc(N[C@@H]3CNC[C@H]3C(C)(C)O)c2cc1OC
In short: as §1

gefitinib = compound: COc1cc2ncnc(Nc3ccc(F)c(Cl)c3)c2cc1OCCCN1CCOCC1 [gefitinib]
In short: as §1

[6] = compound: COc1cccc2cc(-c3nc([C@H]4CC[C@H](C(=O)O)CC4)n4ncnc(N)c34)[nH]c12
In short: as §1

lapatinib = compound: CS(=O)(=O)CCNCc1ccc(-c2ccc3ncnc(Nc4ccc(OCc5cccc(F)c5)c(Cl)c4)c3c2)o1 [lapatinib]
In short: as §1

pictilisib = compound: CS(=O)(=O)N1CCN(Cc2cc3nc(-c4cccc5[nH]ncc45)nc(N4CCOCC4)c3s2)CC1 [pictilisib]
In short: as §1

Measured: log2 fold change

APOA1 (UniProt P02647)
inactive: saracatinib -0.017 | sotrastaurin 0.236 | alvocidib -0.112 | Tubastatin A -0.026 | [1] 0.206 | defactinib 0.007 | rucaparib -0.183 | [2] 0.034 | encorafenib -0.098 | [3] 0.033 | [4] 0.118 | filanesib 0.152 | zotarolimus 0.126 | idasanutlin -0.309 | alisertib -0.026 | [5] -0.019 | gefitinib 0.029 | [6] 0.233 | lapatinib 0.057 | pictilisib 0.064

APOBR (UniProt Q0VD83)
inactive: saracatinib 0.017 | sotrastaurin 0.046 | alvocidib -0.014 | Tubastatin A -0.004 | [1] -0.041 | defactinib -0.001 | rucaparib 0.004 | [2] -0.075 | encorafenib -0.006 | [3] 0.035 | [4] -0.133 | filanesib 0.01 | zotarolimus -0.039 | idasanutlin 0.007 | alisertib -0.067 | [5] 0.034 | gefitinib 0.024 | [6] 0.055 | lapatinib -0.046 | pictilisib 0.042

ARHGAP17 (UniProt Q68EM7)
inactive: saracatinib -0.245 | sotrastaurin -0.2 | alvocidib -0.029 | Tubastatin A 0.074 | [1] 0 | defactinib 0.017 | rucaparib 0.129 | [2] 0.009 | encorafenib 0.198 | [3] -0.005 | [4] -0.005 | filanesib 0.07 | zotarolimus 0.094 | idasanutlin 0.101 | alisertib 0.317 | [5] 0.027 | gefitinib -0.003 | [6] -0.113 | lapatinib -0.017 | pictilisib -0.175

AP3M1 (UniProt Q9Y2T2)
inactive: saracatinib 0.003 | sotrastaurin 0.024 | alvocidib -0.01 | Tubastatin A 0.034 | [1] 0.013 | defactinib -0.037 | rucaparib 0.029 | [2] 0.037 | encorafenib 0.077 | [3] -0.007 | [4] 0.023 | filanesib -0.04 | zotarolimus 0.001 | idasanutlin -0.054 | alisertib -0.037 | [5] 0.008 | gefitinib -0.043 | [6] -0.006 | lapatinib 0.011 | pictilisib -0.034

API5 (UniProt Q9BZZ5)
inactive: saracatinib 0.018 | sotrastaurin -0.001 | alvocidib -0.046 | Tubastatin A -0.015 | [1] -0.029 | defactinib -0.019 | rucaparib -0.081 | [2] -0.049 | encorafenib 0.011 | [3] -0.002 | [4] 0.051 | filanesib -0.047 | zotarolimus 0.024 | idasanutlin -0.024 | alisertib -0.055 | [5] 0.018 | gefitinib -0.009 | [6] 0.042 | lapatinib -0.011 | pictilisib -0.004

ARF5 (UniProt P84085)
inactive: saracatinib 0.005 | sotrastaurin 0.072 | alvocidib 0.014 | Tubastatin A -0.017 | [1] -0.026 | defactinib -0.004 | rucaparib -0.055 | [2] -0.046 | encorafenib 0.011 | [3] -0.008 | [4] 0.003 | filanesib -0.016 | zotarolimus -0.001 | idasanutlin -0.055 | alisertib -0.007 | [5] 0.01 | gefitinib 0.011 | [6] 0.065 | lapatinib 0.047 | pictilisib -0.008

APRT (UniProt P07741)
inactive: saracatinib -0.013 | sotrastaurin 0.005 | alvocidib 0.013 | Tubastatin A -0.002 | [1] -0.041 | defactinib -0.006 | rucaparib -0.023 | [2] -0.015 | encorafenib -0.002 | [3] 0.017 | [4] -0.005 | filanesib -0.011 | zotarolimus -0.007 | idasanutlin 0.002 | alisertib -0.066 | [5] 0.047 | gefitinib -0.011 | [6] 0.054 | lapatinib -0.071 | pictilisib 0.061

ANK3 (UniProt Q12955)
inactive: saracatinib -0.151 | sotrastaurin 0.067 | alvocidib 0.058 | Tubastatin A 0.155 | [1] -0.013 | defactinib -0.034 | rucaparib 0.344 | [2] -0.012 | encorafenib 0.156 | [3] -0.1 | [4] 0.063 | filanesib 0.109 | zotarolimus -0.069 | idasanutlin 0.05 | alisertib -0.187 | [5] -0.032 | gefitinib 0.047 | [6] 0.03 | lapatinib 0.04 | pictilisib 0.083

ARF1 (UniProt P84077)
inactive: saracatinib 0.066 | sotrastaurin -0.168 | alvocidib -0.141 | Tubastatin A -0.123 | [1] -0.032 | defactinib 0.002 | rucaparib 0.038 | [2] 0.033 | encorafenib 0.171 | [3] 0.008 | [4] 0.138 | filanesib -0.061 | zotarolimus 0.072 | idasanutlin 0.027 | alisertib -0.132 | [5] -0.02 | gefitinib -0.204 | [6] 0.076 | lapatinib 0.019

AP3B1 (UniProt O00203)
inactive: saracatinib -0.033 | sotrastaurin -0.039 | alvocidib -0.031 | Tubastatin A 0.102 | [1] -0.005 | defactinib -0.036 | rucaparib 0.058 | [2] 0.04 | encorafenib -0.002 | [3] 0.001 | [4] 0.025 | filanesib -0.018 | zotarolimus 0.019 | idasanutlin -0.04 | alisertib -0.03 | [5] 0.063 | gefitinib 0.007 | [6] -0.05 | lapatinib -0.003 | pictilisib 0.01

AP1G1 isoform 2 (UniProt O43747)
inactive: saracatinib 0 | sotrastaurin -0.126 | alvocidib -0.051 | Tubastatin A 0.032 | [1] 0.012 | defactinib -0.047 | rucaparib 0.064 | [2] 0.049 | encorafenib 0.051 | [3] -0.086 | [4] 0.11 | filanesib -0.038 | zotarolimus 0.054 | idasanutlin -0.084 | alisertib -0.043 | [5] -0.011 | gefitinib 0.017 | [6] -0.015 | lapatinib 0.034 | pictilisib 0.002

ANAPC16 (UniProt Q96DE5)
inactive: saracatinib 0.011 | sotrastaurin -0.028 | alvocidib -0.07 | Tubastatin A 0 | [1] 0.035 | defactinib 0.021 | rucaparib -0.011 | [2] 0.034 | encorafenib 0.021 | [3] 0.038 | [4] 0.064 | filanesib 0.147 | zotarolimus 0.093 | idasanutlin -0.01 | alisertib -0.08 | [5] -0.04 | gefitinib 0.008 | [6] -0.056 | lapatinib 0.03 | pictilisib 0.02

ANO6 isoform 2 (UniProt Q4KMQ2)
inactive: saracatinib 0.088 | sotrastaurin -0.015 | alvocidib -0.027 | Tubastatin A -0.017 | [1] -0.043 | defactinib -0.017 | rucaparib -0.011 | [2] 0.03 | encorafenib -0.002 | [3] -0.008 | [4] -0.027 | filanesib 0.002 | zotarolimus 0.056 | idasanutlin -0.005 | alisertib -0.096 | [5] -0.016 | gefitinib 0.019 | [6] 0.046 | lapatinib 0.001 | pictilisib 0.002

APOC1 (UniProt P02654)
inactive: saracatinib -0.124 | sotrastaurin 0.006 | alvocidib 0.08 | Tubastatin A -0.036 | [1] 0.035 | defactinib -0.004 | rucaparib -0.047 | [2] -0.072 | encorafenib -0.045 | [3] 0.07 | [4] -0.108 | filanesib 0.077 | zotarolimus -0.019 | idasanutlin -0.017 | alisertib -0.012 | [5] -0.053 | gefitinib 0.039 | [6] 0.045 | lapatinib 0.013 | pictilisib 0.024

ANKMY2 (UniProt Q8IV38)
inactive: saracatinib -0.03 | sotrastaurin -0.061 | alvocidib -0.041 | Tubastatin A 0.046 | [1] 0.011 | defactinib -0.038 | rucaparib -0.051 | [2] -0.015 | encorafenib 0.035 | [3] -0.025 | [4] 0.037 | filanesib -0.029 | zotarolimus -0.005 | idasanutlin -0.039 | alisertib -0.029 | [5] -0.02 | gefitinib 0.016 | [6] -0.036 | lapatinib 0.027 | pictilisib -0.034

2 neighbouring entries out of the list so far, quoted:
ARHGAP17 (UniProt Q68EM7)
inactive: saracatinib -0.245 | sotrastaurin -0.2 | alvocidib -0.029 | Tubastatin A 0.074 | [1] 0 | defactinib 0.017 | rucaparib 0.129 | [2] 0.009 | encorafenib 0.198 | [3] -0.005 | [4] -0.005 | filanesib 0.07 | zotarolimus 0.094 | idasanutlin 0.101 | alisertib 0.317 | [5] 0.027 | gefitinib -0.003 | [6] -0.113 | lapatinib -0.017 | pictilisib -0.175

AP3M1 (UniProt Q9Y2T2)
inactive: saracatinib 0.003 | sotrastaurin 0.024 | alvocidib -0.01 | Tubastatin A 0.034 | [1] 0.013 | defactinib -0.037 | rucaparib 0.029 | [2] 0.037 | encorafenib 0.077 | [3] -0.007 | [4] 0.023 | filanesib -0.04 | zotarolimus 0.001 | idasanutlin -0.054 | alisertib -0.037 | [5] 0.008 | gefitinib -0.043 | [6] -0.006 | lapatinib 0.011 | pictilisib -0.034

(next part)

ARHGEF2 (UniProt Q92974)
inactive: saracatinib -0.11 | sotrastaurin -0.101 | alvocidib 0.227 | Tubastatin A 0.122 | [1] -0.223 | defactinib 0.249 | rucaparib 0.519 | [2] 0.179 | encorafenib 0.23 | [3] -0.01 | [4] 0.048 | filanesib 0.466 | zotarolimus 0.119 | idasanutlin 0.249 | alisertib -0.137 | [5] -0.166 | gefitinib -0.03 | [6] -0.274 | lapatinib 0.157 | pictilisib -0.077
